Test [1] has as its target 3xFLAG-LarA-V86A-V88A (C. crescentus). The test is described as follows: co-IP; α-FLAG M2 antibody on Dynabeads Protein G; cleared BugBuster lysates of WT C. crescentus overexpressing F-LarA variants (xylose 1 h); 2.5 h at 4 °C; immunoblot for Lon; empty vector as control. On the technique in general: Immunoblotting shows a protein as a band on a membrane.
Test [2] has as its target N-terminally 3xFLAG-tagged LarA (C. crescentus). The description is as above.

Results are given in words; binding and its absence hold for the method and conditions named. In cells and extracts the contact can be indirect. Binding can be weak; no strength is given.

B1: Lon, endogenous (enzyme, UniProt B8GX12 1-799)
chain: MSELRTLPVLPLRDIVVFPHMVVPLFVGRDKSVRALEEVMRGDKQILLVTQKNSADDDPAPGDIFEVGVLATVLQLLKLPDGTVKVLVEGKARAAVVSFTDQESYYEAQIGEVSEDDGAGPEAEALSRAVVEQFENYVKLNKKVPPEALASIPQIAEPGKLADSIAAHLSVKIGDKQNLLEIFDVVKRLEKVFALMEGEISVLQVEKKIRSRVKRQMEKTQREYYLNEQMKAIQRELGDPDDARDELIDLEKRIKKTKLSKEARTKAESELKKLRNMSPMSAESTVVRNYLDWLLSIPWGKAKTKKIDLVESEGILDADHYGLEKVKERILEYLAVQARTNSLKGPILCLVGPPGVGKTSLGKSIAKATGREFVRMSLGGVRDEAEIRGHRRTYIGSMPGKVVQSMKKAKTTNAFVLLDEIDKMGSDYRGDPASALLEVLDPSQNSTFGDHYLEVDYDLSQVMFVTTANSLNMPQPLLDRMEIIRIPGYTEDEKLEIAKRHILPKLAKDHGLKPAEFIVPDKAIRDLIRYYTREAGVRSLERELGALARKTVRDLAREKVASITIDDERLAKYAGVKKYRYGETDEVDQVGIVTGLAWTEFGGDILTIEAVKMPGKGRMQITGNLKDVMKESIAAANSYVRSRALQFGIKPPVFEKTDVHIHVPDGATPKDGPSAGIAMALAMVSVLTGIPIRKDIAMTGEITLRGRVTAIGGLKEKLLAALRSGVKTVLIPQENEKDLADVPQTVKDGLEIIPVSTVDEVLKHALTGPLTPVEWNEAEEPITTSAKKDDGDSDAMLTH
For B1, the binding entry in test [1] and in test [2] was “binds” throughout.

The record behind these values is publication PMC10665427.
